Results published in the supplement of paper PMC10849652.
The other results are listed elsewhere or left out. Residues, ends and D or L forms follow the SMILES beside them. *: point of attachment. Cbz = O=C(OCc1ccccc1)*

Sequences of proteins named here, by UniProt entry; tags and fusion partners are left off. A change or cut given only in a name is not applied to a line headed by its entry.
UniProt P12980: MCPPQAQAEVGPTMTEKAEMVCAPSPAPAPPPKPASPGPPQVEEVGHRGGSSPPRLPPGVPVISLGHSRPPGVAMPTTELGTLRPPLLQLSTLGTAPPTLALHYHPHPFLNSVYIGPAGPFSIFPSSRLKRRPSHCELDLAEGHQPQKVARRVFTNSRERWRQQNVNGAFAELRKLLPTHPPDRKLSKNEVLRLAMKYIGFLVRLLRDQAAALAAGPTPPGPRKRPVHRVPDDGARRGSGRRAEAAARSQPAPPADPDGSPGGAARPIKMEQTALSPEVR
UniProt P55145: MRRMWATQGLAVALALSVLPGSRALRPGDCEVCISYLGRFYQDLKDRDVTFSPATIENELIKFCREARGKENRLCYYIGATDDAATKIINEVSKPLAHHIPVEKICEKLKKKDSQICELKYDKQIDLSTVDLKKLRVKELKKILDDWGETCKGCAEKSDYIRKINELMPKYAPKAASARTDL
UniProt Q9NQ48: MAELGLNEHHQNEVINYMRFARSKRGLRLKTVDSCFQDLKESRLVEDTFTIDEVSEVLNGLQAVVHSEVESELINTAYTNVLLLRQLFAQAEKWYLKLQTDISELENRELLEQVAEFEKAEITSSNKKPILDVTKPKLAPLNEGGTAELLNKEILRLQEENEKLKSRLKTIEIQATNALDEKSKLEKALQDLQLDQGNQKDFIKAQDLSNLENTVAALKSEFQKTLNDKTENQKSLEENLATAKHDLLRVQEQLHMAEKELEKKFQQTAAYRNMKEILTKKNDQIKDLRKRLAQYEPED
UniProt Q6ZN28: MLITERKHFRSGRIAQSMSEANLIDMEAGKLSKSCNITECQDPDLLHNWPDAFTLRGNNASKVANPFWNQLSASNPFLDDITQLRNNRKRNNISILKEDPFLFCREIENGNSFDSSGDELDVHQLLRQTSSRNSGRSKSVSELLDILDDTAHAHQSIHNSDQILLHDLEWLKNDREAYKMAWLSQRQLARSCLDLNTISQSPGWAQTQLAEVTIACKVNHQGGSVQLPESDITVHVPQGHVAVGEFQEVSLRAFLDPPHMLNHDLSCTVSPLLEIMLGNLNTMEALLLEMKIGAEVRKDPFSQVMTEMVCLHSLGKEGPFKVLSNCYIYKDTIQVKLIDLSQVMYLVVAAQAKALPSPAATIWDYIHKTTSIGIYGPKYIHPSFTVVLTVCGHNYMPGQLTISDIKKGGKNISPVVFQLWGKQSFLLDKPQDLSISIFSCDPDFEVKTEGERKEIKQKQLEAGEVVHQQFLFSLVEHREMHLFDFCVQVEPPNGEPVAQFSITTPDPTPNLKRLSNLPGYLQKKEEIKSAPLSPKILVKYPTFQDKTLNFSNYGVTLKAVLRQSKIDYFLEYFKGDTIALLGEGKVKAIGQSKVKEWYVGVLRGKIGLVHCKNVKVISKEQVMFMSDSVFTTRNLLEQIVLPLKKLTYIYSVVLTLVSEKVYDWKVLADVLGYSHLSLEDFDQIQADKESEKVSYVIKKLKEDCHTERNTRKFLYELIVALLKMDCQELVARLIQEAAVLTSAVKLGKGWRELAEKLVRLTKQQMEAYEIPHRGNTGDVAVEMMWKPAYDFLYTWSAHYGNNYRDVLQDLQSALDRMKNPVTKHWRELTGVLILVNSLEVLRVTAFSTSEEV
UniProt O15479: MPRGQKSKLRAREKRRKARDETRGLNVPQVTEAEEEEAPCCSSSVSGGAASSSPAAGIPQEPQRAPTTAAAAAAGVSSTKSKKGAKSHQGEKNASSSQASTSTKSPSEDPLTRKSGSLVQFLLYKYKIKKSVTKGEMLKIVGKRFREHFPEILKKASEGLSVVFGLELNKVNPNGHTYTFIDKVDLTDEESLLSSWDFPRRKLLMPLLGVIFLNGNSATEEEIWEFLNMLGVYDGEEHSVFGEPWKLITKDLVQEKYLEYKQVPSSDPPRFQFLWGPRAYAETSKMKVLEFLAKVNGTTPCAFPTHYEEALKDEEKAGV
UniProt Q9NX47: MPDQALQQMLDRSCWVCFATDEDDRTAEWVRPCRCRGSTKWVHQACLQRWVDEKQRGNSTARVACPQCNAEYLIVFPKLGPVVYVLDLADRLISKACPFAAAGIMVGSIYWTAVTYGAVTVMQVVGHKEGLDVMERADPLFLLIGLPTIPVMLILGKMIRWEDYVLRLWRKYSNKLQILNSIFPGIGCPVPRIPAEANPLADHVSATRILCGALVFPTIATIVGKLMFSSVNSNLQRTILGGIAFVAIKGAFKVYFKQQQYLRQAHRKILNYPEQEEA
UniProt P02788: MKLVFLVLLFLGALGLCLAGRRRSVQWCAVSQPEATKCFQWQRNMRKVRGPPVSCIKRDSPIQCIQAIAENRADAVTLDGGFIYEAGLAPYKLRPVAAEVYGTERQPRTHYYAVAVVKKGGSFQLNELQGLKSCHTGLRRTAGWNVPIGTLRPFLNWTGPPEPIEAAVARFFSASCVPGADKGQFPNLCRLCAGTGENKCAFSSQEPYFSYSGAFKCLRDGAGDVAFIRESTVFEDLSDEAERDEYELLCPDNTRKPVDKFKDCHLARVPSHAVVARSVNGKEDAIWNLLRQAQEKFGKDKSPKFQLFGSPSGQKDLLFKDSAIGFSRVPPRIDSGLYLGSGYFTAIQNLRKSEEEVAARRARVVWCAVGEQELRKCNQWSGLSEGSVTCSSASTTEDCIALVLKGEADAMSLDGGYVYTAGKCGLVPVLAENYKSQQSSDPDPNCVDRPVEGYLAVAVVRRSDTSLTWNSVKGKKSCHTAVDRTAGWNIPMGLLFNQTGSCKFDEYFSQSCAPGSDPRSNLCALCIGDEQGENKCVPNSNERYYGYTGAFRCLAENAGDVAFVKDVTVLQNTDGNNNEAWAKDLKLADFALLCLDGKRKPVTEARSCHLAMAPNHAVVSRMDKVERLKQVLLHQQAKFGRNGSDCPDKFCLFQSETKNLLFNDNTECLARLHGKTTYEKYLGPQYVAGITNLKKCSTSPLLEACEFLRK
UniProt Q8IWT6: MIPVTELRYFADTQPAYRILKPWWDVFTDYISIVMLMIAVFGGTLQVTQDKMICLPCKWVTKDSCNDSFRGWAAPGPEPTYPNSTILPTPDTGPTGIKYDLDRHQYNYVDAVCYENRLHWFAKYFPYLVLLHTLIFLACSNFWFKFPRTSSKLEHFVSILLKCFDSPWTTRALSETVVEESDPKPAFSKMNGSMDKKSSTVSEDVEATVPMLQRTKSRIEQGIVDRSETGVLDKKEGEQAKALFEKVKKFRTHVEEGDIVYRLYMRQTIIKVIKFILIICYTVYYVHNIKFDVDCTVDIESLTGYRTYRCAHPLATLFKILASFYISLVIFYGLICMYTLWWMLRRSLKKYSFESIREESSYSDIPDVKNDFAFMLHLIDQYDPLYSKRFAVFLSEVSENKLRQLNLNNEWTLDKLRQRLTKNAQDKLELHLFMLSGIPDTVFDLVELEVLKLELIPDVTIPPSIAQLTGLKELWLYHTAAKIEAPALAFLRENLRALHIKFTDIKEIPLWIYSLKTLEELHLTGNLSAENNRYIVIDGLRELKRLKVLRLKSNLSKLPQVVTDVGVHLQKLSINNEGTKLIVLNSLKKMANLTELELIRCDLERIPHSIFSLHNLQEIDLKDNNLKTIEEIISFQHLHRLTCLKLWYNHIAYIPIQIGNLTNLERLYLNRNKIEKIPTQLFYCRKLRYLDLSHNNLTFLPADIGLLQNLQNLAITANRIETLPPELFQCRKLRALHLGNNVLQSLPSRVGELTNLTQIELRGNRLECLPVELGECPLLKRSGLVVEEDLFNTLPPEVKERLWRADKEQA
UniProt P43366: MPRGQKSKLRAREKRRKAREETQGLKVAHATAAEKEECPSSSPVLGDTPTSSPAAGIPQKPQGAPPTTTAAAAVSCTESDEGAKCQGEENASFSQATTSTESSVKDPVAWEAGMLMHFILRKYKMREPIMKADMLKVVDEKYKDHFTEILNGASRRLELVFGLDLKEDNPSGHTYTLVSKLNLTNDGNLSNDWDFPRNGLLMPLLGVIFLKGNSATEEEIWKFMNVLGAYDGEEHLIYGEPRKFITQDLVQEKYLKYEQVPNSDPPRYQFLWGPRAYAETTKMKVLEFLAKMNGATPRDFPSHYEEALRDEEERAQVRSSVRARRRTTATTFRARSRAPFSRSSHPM
UniProt Q96S90: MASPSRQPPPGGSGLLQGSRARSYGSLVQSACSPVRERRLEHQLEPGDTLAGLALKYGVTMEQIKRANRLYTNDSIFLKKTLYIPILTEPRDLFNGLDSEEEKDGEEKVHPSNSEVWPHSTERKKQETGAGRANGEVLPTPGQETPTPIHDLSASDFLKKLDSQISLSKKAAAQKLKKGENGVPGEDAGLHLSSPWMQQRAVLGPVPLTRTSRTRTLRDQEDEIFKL
UniProt P09960: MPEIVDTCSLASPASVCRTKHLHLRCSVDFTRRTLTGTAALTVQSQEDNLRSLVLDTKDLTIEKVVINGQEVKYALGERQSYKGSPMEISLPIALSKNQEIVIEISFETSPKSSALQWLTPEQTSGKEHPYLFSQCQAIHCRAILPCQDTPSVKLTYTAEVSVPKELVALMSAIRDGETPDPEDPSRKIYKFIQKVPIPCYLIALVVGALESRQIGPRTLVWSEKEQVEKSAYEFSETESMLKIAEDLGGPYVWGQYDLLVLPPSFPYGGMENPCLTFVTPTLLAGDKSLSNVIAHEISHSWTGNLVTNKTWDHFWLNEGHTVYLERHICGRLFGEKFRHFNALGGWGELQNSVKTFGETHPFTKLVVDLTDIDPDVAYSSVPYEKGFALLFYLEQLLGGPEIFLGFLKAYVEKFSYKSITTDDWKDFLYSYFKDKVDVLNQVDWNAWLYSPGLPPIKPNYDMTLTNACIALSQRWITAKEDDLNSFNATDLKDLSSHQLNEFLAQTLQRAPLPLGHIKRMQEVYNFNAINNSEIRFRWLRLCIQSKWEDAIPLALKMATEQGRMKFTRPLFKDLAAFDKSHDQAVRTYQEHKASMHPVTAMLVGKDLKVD
UniProt Q5SRI9: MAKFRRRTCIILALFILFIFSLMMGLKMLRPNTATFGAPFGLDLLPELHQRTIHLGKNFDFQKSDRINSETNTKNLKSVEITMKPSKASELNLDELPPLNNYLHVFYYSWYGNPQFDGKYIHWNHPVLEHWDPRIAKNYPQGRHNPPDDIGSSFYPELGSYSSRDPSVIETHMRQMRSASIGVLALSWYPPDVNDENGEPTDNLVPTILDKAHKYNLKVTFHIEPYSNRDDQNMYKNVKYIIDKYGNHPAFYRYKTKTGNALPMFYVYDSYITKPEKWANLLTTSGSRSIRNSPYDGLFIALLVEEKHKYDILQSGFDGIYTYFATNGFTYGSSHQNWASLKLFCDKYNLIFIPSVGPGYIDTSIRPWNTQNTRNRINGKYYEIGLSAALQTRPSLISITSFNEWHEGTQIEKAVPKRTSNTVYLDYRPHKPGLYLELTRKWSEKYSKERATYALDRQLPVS
UniProt P20645: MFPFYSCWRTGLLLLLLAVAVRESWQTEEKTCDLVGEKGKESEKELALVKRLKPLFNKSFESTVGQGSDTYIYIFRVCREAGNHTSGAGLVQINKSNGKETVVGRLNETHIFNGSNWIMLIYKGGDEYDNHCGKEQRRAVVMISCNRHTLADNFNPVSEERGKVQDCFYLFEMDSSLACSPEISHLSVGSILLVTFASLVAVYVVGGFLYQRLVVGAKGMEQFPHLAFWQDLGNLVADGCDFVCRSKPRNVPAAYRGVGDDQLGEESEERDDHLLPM
UniProt Q9H0U3: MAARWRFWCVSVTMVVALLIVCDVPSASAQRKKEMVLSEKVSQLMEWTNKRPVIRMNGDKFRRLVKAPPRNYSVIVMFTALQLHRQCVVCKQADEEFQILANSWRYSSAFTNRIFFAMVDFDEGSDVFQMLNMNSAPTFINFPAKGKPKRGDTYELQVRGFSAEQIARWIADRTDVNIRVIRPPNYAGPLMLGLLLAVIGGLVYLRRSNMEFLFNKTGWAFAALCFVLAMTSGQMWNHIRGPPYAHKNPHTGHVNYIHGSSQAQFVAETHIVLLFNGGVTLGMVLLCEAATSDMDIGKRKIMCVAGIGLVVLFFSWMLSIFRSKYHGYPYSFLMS
UniProt Q3MHD2: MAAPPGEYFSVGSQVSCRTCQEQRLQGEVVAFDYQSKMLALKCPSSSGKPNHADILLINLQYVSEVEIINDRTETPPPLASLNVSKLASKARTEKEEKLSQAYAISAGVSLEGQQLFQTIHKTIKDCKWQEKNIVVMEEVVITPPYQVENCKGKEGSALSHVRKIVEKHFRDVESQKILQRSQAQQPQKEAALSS

How the values were obtained:
Test in all cases: log2 fold change, soluble protein after heating vs DMSO (PISA); higher = thermal stabilisation; K562 cells, 10 uM, 30 min; active = over 0.2 and 3.5 SD of the protein, either way, in both replicates (recomputed)
IRAK-1-4 Inhibitor I = compound: C1COCCN1CCN2C3=CC=CC=C3N=C2NC(=O)C4=CC(=CC=C4)[N+](=O)[O-] [IRAK-1-4 Inhibitor I]
In short: (§1)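 Values are thermal stability changes relative to control samples and are taken from duplicates. They are stated as log2 fold changes. Before quantification by TMTpro 16plex LC-MS/MS with equalised channel sums, K562 cells at 2×10^6 cells/mL were treated with 10 μM compound for 30 min, heated in aliquots for 3 min across 48°C-58°C, pooled, extracted in PBS with 0.5% NP-40 at 4°C, and centrifuged at 21,000xg for 90 min to give the soluble supernatant.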

ibrutinib = compound: C=CC(=O)N1CCC[C@@H](n2nc(-c3ccc(Oc4ccccc4)cc3)c3c(N)ncnc32)C1 [ibrutinib]
In short: as §1

[1] = compound: CC(=O)c1cnc2ccc(-c3cc(Cl)c(O)c(Cl)c3)nc2c1N[C@H]1CC[C@H](CN(C)C)CC1
In short: as §1

ralimetinib = compound: CC(C)(C)Cn1c(N)nc2ccc(-c3[nH]c(C(C)(C)C)nc3-c3ccc(F)cc3)nc21 [ralimetinib]
In short: as §1

[2] = compound: CC(C)(O)CC(=O)NCCn1ccc2ncnc(Nc3ccc(Oc4cccc(C(F)(F)F)c4)c(Cl)c3)c21
In short: as §1

[3] = compound: CC(C)C1=C2N=C(C=C(N2N=C1)NCC3=CC=CC=C3)NCCCCCCN
In short: as §1

[4] = compound: CC(C)C[C@@H](C=O)NC(=O)[C@H](CC(C)C)NC(=O)[C@H](CC(C)C)NC(=O)OCc1ccccc1
In short: as §1

pinometostat = compound: CC(C)N(C[C@H]1O[C@@H](n2cnc3c(N)ncnc32)[C@H](O)[C@@H]1O)[C@H]1C[C@@H](CCc2nc3cc(C(C)(C)C)ccc3[nH]2)C1 [pinometostat]
In short: as §1

[5] = compound: CC1=C(C(CC(=O)N1)C2=CC=C(C=C2)C(F)(F)F)C(=O)NC3=C(C=C4C(=C3)C=NN4)F
In short: as §1

[6] = compound: CC1=C(C2=C(C=C1)C(=O)C3=CC=CC=C3N2CCCN)C
In short: as §1

[7] = compound: CC1=C(C=C(C=C1)NC(=O)C2=CC(=CC=C2)C(C)(C)C#N)NC3=CC4=C(C=C3)N=CN(C4=O)C
In short: as §1

[8] = compound: CC1=C(C=C(C=C1)NC(=O)C2=CC(=CC=C2)N(C)C)NC(=O)C3=CC=C(C=C3)O
In short: as §1

[9] = compound: CC1=CC=C(C=C1)SC2=C3C=C(SC3=CN=C2)C(=O)N
In short: as §1

[10] = compound: CC1=NC(=CC=C1)C2=C(N=C(N2)C(C)(C)C)C3=CC4=NC=CN=C4C=C3
In short: as §1

Nexturastat A = compound: CCCCN(Cc1ccc(C(=O)NO)cc1)C(=O)Nc1ccccc1 [Nexturastat A]
In short: as §1

vemurafenib = compound: CCCS(=O)(=O)Nc1ccc(F)c(C(=O)c2c[nH]c3ncc(-c4ccc(Cl)cc4)cc23)c1F [vemurafenib]
In short: as §1

[11] = compound: CCCS(=O)(=O)Nc1ccc(F)c(C(=O)c2c[nH]c3ncc(Cl)cc23)c1F
In short: as §1

[12] = compound: CCCc1cc(C)[nH]c(=O)c1CNC(=O)c1cc(-c2ccnc(N3CCN(C)CC3)c2)cc2c1cnn2C(C)C
In short: as §1

givinostat = compound: CCN(CC)Cc1ccc2cc(COC(=O)Nc3ccc(C(=O)NO)cc3)ccc2c1 [givinostat]
In short: as §1

barasertib = compound: CCN(CCCOc1ccc2c(Nc3cc(CC(=O)Nc4cccc(F)c4)[nH]n3)ncnc2c1)CCOP(=O)(O)O [barasertib]
In short: as §1

Measured: log2 fold change

LYL1 (UniProt P12980)
inactive: IRAK-1-4 Inhibitor I 0.271 | ibrutinib 0.032 | [1] -0.186 | ralimetinib 0.05 | [2] -0.085 | [3] 0.016 | [4] 0.187 | pinometostat -0.056 | [5] 0.043 | [6] 0.061 | [7] -0.002 | [8] 0.001 | [9] 0.114 | [10] -0.171 | Nexturastat A -0.099 | vemurafenib -0.187 | [11] 0.015 | [12] 0.165 | givinostat -0.035 | barasertib 0.018

MANF (UniProt P55145)
inactive: IRAK-1-4 Inhibitor I 0.023 | ibrutinib 0.007 | [1] 0.044 | ralimetinib -0.063 | [2] -0.025 | [3] 0.031 | [4] -0.015 | pinometostat -0.036 | [5] 0.042 | [6] -0.032 | [7] 0.057 | [8] -0.021 | [9] 0.098 | [10] 0.009 | Nexturastat A -0.11 | vemurafenib -0.021 | [11] 0.014 | [12] -0.082 | givinostat -0.032 | barasertib -0.024

LZTFL1 (UniProt Q9NQ48)
inactive: IRAK-1-4 Inhibitor I 0.031 | ibrutinib -0.015 | [1] -0.001 | ralimetinib -0.027 | [2] -0.046 | [3] 0.056 | [4] -0.01 | pinometostat -0.013 | [5] 0 | [6] 0.03 | [7] -0.004 | [8] -0.002 | [9] 0.024 | [10] 0.024 | Nexturastat A -0.022 | vemurafenib 0.017 | [11] 0.003 | [12] -0.049 | givinostat -0.058 | barasertib 0.014

MACC1 (UniProt Q6ZN28)
inactive: IRAK-1-4 Inhibitor I -0.027 | ibrutinib -0.038 | [1] -0.253 | ralimetinib 0.007 | [2] -0.074 | [3] -0.028 | [4] 0.109 | pinometostat 0.061 | [5] -0.282 | [6] 0.025 | [7] 0.142 | [8] -0.076 | [9] 0.059 | [10] -0.014 | Nexturastat A -0.043 | vemurafenib -0.042 | [11] 0.031 | [12] 0.042 | givinostat 0.074 | barasertib -0.003

MAGEB2 (UniProt O15479)
inactive: IRAK-1-4 Inhibitor I -0.065 | ibrutinib 0.219 | [1] 0.127 | ralimetinib 0.085 | [2] 0.195 | [3] -0.071 | [4] 0.119 | pinometostat 0.297 | [5] 0.021 | [6] -0.305 | [7] 0.012 | [8] 0.284 | [9] 0.022 | [10] -0.154 | Nexturastat A 0.119 | vemurafenib -0.094 | [11] 0.052 | [12] -0.226 | givinostat 0.118 | barasertib -0.08

MARCHF5 (UniProt Q9NX47)
inactive: IRAK-1-4 Inhibitor I 0.073 | ibrutinib -0.015 | [1] -0.011 | ralimetinib -0.045 | [2] 0.049 | [3] 0.056 | [4] 0.023 | pinometostat -0.026 | [5] 0.011 | [6] 0.01 | [7] -0.019 | [8] 0.02 | [9] -0.011 | [10] 0.003 | Nexturastat A 0.003 | vemurafenib 0.034 | [11] 0.033 | [12] -0.032 | givinostat 0.041 | barasertib -0.05

LTF (UniProt P02788)
inactive: IRAK-1-4 Inhibitor I 0.111 | ibrutinib 0.136 | [1] 0.027 | ralimetinib -0.13 | [2] 0.186 | [3] 0.016 | [4] 0.073 | pinometostat 0 | [5] 0.028 | [6] -0.235 | [7] -0.156 | [8] 0.507 | [9] 0.147 | [10] 0.027 | Nexturastat A 0.011 | vemurafenib 0.015 | [11] -0.163 | [12] -0.101 | givinostat -0.192 | barasertib 0.087

LRRC8A (UniProt Q8IWT6)
inactive: IRAK-1-4 Inhibitor I -0.026 | ibrutinib 0.025 | [1] 0.019 | ralimetinib 0.056 | [2] 0.01 | [3] 0.007 | [4] 0.052 | pinometostat 0.228 | [5] 0.021 | [6] 0.137 | [7] 0.048 | [8] 0.008 | [9] -0.026 | [10] -0.053 | Nexturastat A 0.133 | vemurafenib -0.07 | [11] -0.007 | [12] 0.042 | givinostat 0 | barasertib -0.06

MAGEB1 (UniProt P43366)
inactive: IRAK-1-4 Inhibitor I -0.182 | ibrutinib 0.104 | [1] 0.097 | ralimetinib 0.225 | [2] 0.04 | [3] -0.104 | [4] 0.118 | pinometostat 0.339 | [5] -0.009 | [6] -0.421 | [7] 0.042 | [8] 0.053 | [9] -0.056 | [10] -0.057 | Nexturastat A 0.369 | vemurafenib 0.008 | [11] -0.009 | [12] 0.151 | givinostat 0.07 | barasertib -0.125

LYSMD1 (UniProt Q96S90)
inactive: IRAK-1-4 Inhibitor I 0.008 | ibrutinib -0.015 | [1] -0.044 | ralimetinib 0.03 | [2] -0.006 | [3] 0.004 | [4] 0.122 | pinometostat -0.051 | [5] -0.009 | [6] -0.03 | [7] 0.031 | [8] 0.032 | [9] 0.015 | [10] 0.029 | Nexturastat A 0.05 | vemurafenib 0.034 | [11] 0.059 | [12] -0.084 | givinostat 0.005 | barasertib 0.01

LTA4H (UniProt P09960)
inactive: IRAK-1-4 Inhibitor I -0.014 | ibrutinib -0.017 | [1] 0.029 | ralimetinib -0.037 | [2] -0.028 | [3] -0.005 | [4] -0.037 | pinometostat -0.042 | [5] -0.017 | [6] 0.081 | [7] 0.018 | [8] 0.001 | [9] 0.132 | [10] 0.01 | Nexturastat A -0.082 | vemurafenib 0.027 | [11] 0.078 | [12] -0.011 | givinostat 0.022 | barasertib 0.003

MANEA (UniProt Q5SRI9)
inactive: IRAK-1-4 Inhibitor I 0.02 | ibrutinib 0.055 | [1] 0.026 | ralimetinib 0.099 | [2] -0.06 | [3] 0.11 | [4] -0.004 | pinometostat -0.054 | [5] -0.059 | [6] -0.043 | [7] 0.039 | [8] 0.025 | [9] 0.011 | [10] 0.071 | Nexturastat A -0.025 | vemurafenib -0.021 | [11] -0.003 | [12] -0.296 | givinostat 0.005 | barasertib -0.159

M6PR (UniProt P20645)
inactive: IRAK-1-4 Inhibitor I 0.027 | ibrutinib 0.052 | [1] 0.044 | ralimetinib 0.004 | [2] -0.031 | [3] 0.06 | [4] 0.026 | pinometostat -0.012 | [5] 0.084 | [6] -0.001 | [7] -0.086 | [8] 0.01 | [9] 0.185 | [10] -0.029 | Nexturastat A -0.066 | vemurafenib -0.048 | [11] -0.007 | [12] -0.077 | givinostat -0.044 | barasertib -0.002

MAPRE2 (UniProt Q15555)
inactive: IRAK-1-4 Inhibitor I -0.096 | ibrutinib -0.019 | [1] 0.07 | ralimetinib 0.101 | [2] 0.069 | [3] -0.054 | [4] -0.083 | pinometostat -0.048 | [5] -0.072 | [6] -0.029 | [7] 0.495 | [8] -0.061 | [9] 0.027 | [10] 0.357 | Nexturastat A 0.29 | vemurafenib 0.195 | [11] 0.089 | [12] 0.094 | givinostat 0.095 | barasertib 0.005

MAGT1 (UniProt Q9H0U3)
inactive: IRAK-1-4 Inhibitor I -0.031 | ibrutinib -0.014 | [1] 0.031 | ralimetinib 0.006 | [2] 0.026 | [3] -0.028 | [4] -0.002 | pinometostat 0.057 | [5] 0.01 | [6] -0.008 | [7] 0.009 | [8] 0.008 | [9] 0.027 | [10] -0.07 | Nexturastat A 0.029 | vemurafenib -0.064 | [11] -0.004 | [12] -0.024 | givinostat -0.019 | barasertib 0.005

2 consecutive entries out of the list so far:
LRRC8A (UniProt Q8IWT6)
inactive: IRAK-1-4 Inhibitor I -0.026 | ibrutinib 0.025 | [1] 0.019 | ralimetinib 0.056 | [2] 0.01 | [3] 0.007 | [4] 0.052 | pinometostat 0.228 | [5] 0.021 | [6] 0.137 | [7] 0.048 | [8] 0.008 | [9] -0.026 | [10] -0.053 | Nexturastat A 0.133 | vemurafenib -0.07 | [11] -0.007 | [12] 0.042 | givinostat 0 | barasertib -0.06

MAGEB1 (UniProt P43366)
inactive: IRAK-1-4 Inhibitor I -0.182 | ibrutinib 0.104 | [1] 0.097 | ralimetinib 0.225 | [2] 0.04 | [3] -0.104 | [4] 0.118 | pinometostat 0.339 | [5] -0.009 | [6] -0.421 | [7] 0.042 | [8] 0.053 | [9] -0.056 | [10] -0.057 | Nexturastat A 0.369 | vemurafenib 0.008 | [11] -0.009 | [12] 0.151 | givinostat 0.07 | barasertib -0.125

(listing goes on)

LSM12 isoform 2 (UniProt Q3MHD2)
inactive: IRAK-1-4 Inhibitor I -0.038 | ibrutinib -0.034 | [1] -0.024 | ralimetinib 0.072 | [2] -0.009 | [3] 0.055 | [4] 0.026 | pinometostat 0.039 | [5] -0.044 | [6] 0.058 | [7] 0.004 | [8] -0.002 | [9] 0.003 | [10] 0.015 | Nexturastat A 0.077 | vemurafenib 0.053 | [11] 0.046 | [12] 0.03 | givinostat 0.052 | barasertib 0.022
